According to the supplement of paper PMC10338343:
± gives the standard deviation. The list shows a part of the results, in another mix than the full data. Many of these values have a large error.

Tested on: MILI (PIWIL2) piRISC loaded with Kctd7 piRNA (26 nt)
Assay: pre-steady-state target cleavage rate (min^-1); MIWI and MILI are mouse PIWI proteins and EfPiwi is from a freshwater sponge; tags in brackets are library labels; higher = faster piRNA-guided slicing of the target
Conditions: guide: Kctd7 piRNA 5'p-UGUUAAUCUCUCAGAGAAGGUGACAG; auxiliary factor: 500 nM mouse GTSF1
Procedure, shortened: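 A burst-and-steady-state fit was used to obtain the pre-steady-state cleavage rate. The input data were sequencing reads of uncleaved targets, normalised to depth and to weakly complementary targets, from a […] transcribed, DNA-blocked target RNA library mixed with 1 nM active affinity-purified piRISC holding one synthetic guide, with or without 500 nM GTSF1 partner protein, in HEPES–potassium acetate buffer at 33 °C for 0–8 or 0–960 min. Three trials were pooled and k3 was capped at 0.0001 min^-1.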
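Note: 1 nM active piRISC with 0.1 nM target library at 33 °C single turnover.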

Sequence	pre-steady-state target cleavage rate
UAGUGACAGACCUAGACUGAGAGAUUAACA	0.00231 ± 0.0046
UAGUGACAGUGCUUCUCUGUCUGAUUAACA	0.000469 ± 0.0096
UAGUGACUCACCUUCUCUGACUGAUUAACA	0.00124 ± 0.0074
UAGUGACUCACCUUCUCUGAGUGAUUAUGA	0.000446 ± 0.013
UAGUGACAGUGGAAGACUGAGAUGAUUAACA	0.000159 ± 0.018
UAGUGUGUCACCUUCUCUGUCUGAUUAACA	0.00149 ± 0.0073
UAGUGACAGUCCUUCACUGAGAGAUUAUCA	0.00293 ± 0.004
UAGUGUGUCACCUUCUCUGUCAGAUUUUGA	0.000294 ± 0.039
UAGUGACAGUGGAUGUCUGAGAGAUUUACA	0.000223 ± 0.024
UAGUGACAGAGGUUCUCUGAGAGAUUAAGA	0.0016 ± 0.005
UAGUGACAGACCAAGUCUGAGAGAUUAUGA	0.00045 ± 0.022
UAGUGACUCACCUUCUCUGAGUGAUUAUCA	0.000644 ± 0.015
UAGUGACAGACCUUCUCUGAGACAUUAAGA	0.00054 ± 0.019
UAGUGACUCACCUUCUCUGAGAGAGUUAACA	0.118 ± 0.017
UAGUGACAGUGCUUCUCUGAGAGAUAUUCA	0.000354 ± 0.013
UAGUGACACACCUUCUCUGAGACUUUAACA	0.00232 ± 0.004
UAGUGACUCACCUUCUCACUGAGAUUAAGA	0.00278 ± 0.0042
UAGUCUGUCACCUUCUCUGAGAGAUCAACA	0.114 ± 0.018
UAGUGAGUCACCUUGACUGAGAGAUUAAGA	0.00128 ± 0.0089
UAGUGACAGUGGAAGACUGAGAGAUUAACCA	0.000127 ± 0.031
UAGUCUGUGACCUUCUCUGAGAGAUUUUGA	0.00188 ± 0.0037
UAGUGUGACACCUUCUCUGAGUGAUUAACA	0.00251 ± 0.0052
UAGUGACAGUCCAAGUCUGAGAGAUUAAGA	0.000574 ± 0.013
UAGUGACAGUGGUUGUCUGAGAGAAUAACA	0.000323 ± 0.019

Sequence	pre-steady-state target cleavage rate
UAGUGACAGUGGAUAUCUGAGAGAUUAACA	0.00214 ± 0.0022
UAGUGACACACCUUCUCUGAGUCUAAUUGA [g10:g22:cont:t1A]	0.000499 ± 0.013
UAGUGAGUCACCUUCUCUGAGAGAUUAAGA	0.219 ± 0.035
UAGUGACAGUGCUUCUCUGAGGAUUAACA	0.000249 ± 0.014
UAGUGACAGUGGAACGUCUGAGAGAUUAACA	0.00151 ± 0.003
UAGUGACUCAGCUUCUCUGAGUGAUUAACA	0.00132 ± 0.0088
UAGUGUGUCACCUUCUCACAGAGAUUUUGA	0.00191 ± 0.0068
UAGUGACACACGUUCUCUGAGAGAUAUUGA	0.000487 ± 0.013
UAGUGACAGUGGAGCUCUGAGAGAUUAACA	0.000615 ± 0.0077
UAGUGACAGACCUUCUCUGAGUCUUUUUGA	0.000411 ± 0.029
UAGUGACAGUGGUUCACUGAGUGAUUAACA	0.0022 ± 0.0037
UAGUGACAGACCUUCUCUGAGAGUAUAACA	0.00513 ± 0.0052
UAGUGACAGUGCUUCUACUGAGAGAUUAACA	0.00159 ± 0.0055
UAGUCUGUGUGCUUCUCUGAGAGAUUAUGA	0.000819 ± 0.0047
UAGUGACAGUCCUUCUCUAGAGAGAUUAACA	0.000507 ± 0.015
UAGUCUGUCACCUUGCUCUGAGAGAUUAACA	0.299 ± 0.059
UAGUGACAGUGGAAGAGACUCUCAUUAACU [g2:g7:cont:t1U]	0.000112 ± 0.033
UAGUGACACUGCUUCUCUGAGAGAUAUUGA	0.000354 ± 0.012
UAGUGAGUCACCUUCUCUGAGAGAUUAAUCA	0.292 ± 0.053
UAGUGACAGUGGAAGUCUGAGAAGAUUAACA	0.00016 ± 0.017
UAGUGACAGUCCUUCUCUGAGCAGAUUAACA	0.00085 ± 0.0073
UAGUGACUCACCUUCUGUGACAGAUUAACA	0.0678 ± 0.011
UAGUGACAGUGGAAUUCUGAGAGAUUAACA	0.00018 ± 0.028
UAGUGUGUCACCUUCAGAGAGAGAUUAAGA	0.00336 ± 0.0058

Pulled one by one from the list above:
Sequence	pre-steady-state target cleavage rate
UAGUGACACACGUUCUCUGAGAGAUAUUGA	0.000487 ± 0.013
UAGUCUGUCACCUUGCUCUGAGAGAUUAACA	0.299 ± 0.059

The listing continues:

Sequence	pre-steady-state target cleavage rate
UAGUGACUCACCUUCAGUGAGAGAUUUUGA	0.00314 ± 0.0039
UAGUGACAGUCCAACUCUGAGAGAUUAAGA	0.000311 ± 0.0073
UAGUCUCAGACCUUCUCUGAGAGAUUAUGA	0.00304 ± 0.0043
UAGUGAGUCACCUUCUCUGAGAGAUUAACU [g2:g24:cont:t1U]	0.288 ± 0.038
UAGUGACUCACCUUCACUGAGUGAUUAACA	0.00256 ± 0.004
UAGUGACAGACCUUCUGACUCUCUAAUUGA [g15:g21:cont:t1A]	0.000384 ± 0.019
UAGUGACAGUGGAACUCUGAGAGAUUAGACA	0.000146 ± 0.038
UAGUGACUCACCUUCUCUAGAGAGAUUAACA	0.000637 ± 0.013
UAGUGACAGUGGAAGAGACAGAGAUUUACA	0.000453 ± 0.011
UAGUGUGUCACCUUCUCACAGAGAUUAUGA	0.00166 ± 0.0085
UAGUGACAGUCCUUGUCUGAGAGAUUAUCA	0.00224 ± 0.0062
UAGUGACAGACCUUCUCGUGAGAGAUUAACA	0.000361 ± 0.034
UAGUGACAGACCUUCUCUGACAGAAUAACA	0.000376 ± 0.029
UAGUGACAGUGGAAGAGACAGAGAUAUACA	0.000282 ± 0.024
UAGUGAGUCACGUUCUCUGAGAGAUAUUGA	0.00136 ± 0.0081
UAGUGACAGACCUUCUCUGAGUCUUUAACA	0.000348 ± 0.025
UAGUGACAGUCCUUCUCACAGAGAUUAACA	0.00123 ± 0.0067
UAGUGACUCACCUUCUCUGACUCAUUAAGA	0.000451 ± 0.014
UAGUGACAGUGCUUCUCUGACUGAUUAACA	0.000129 ± 0.016
UAGUGACAGUGCAUCUCUGAGACAUUAACA	0.000208 ± 0.015
UAGUGACAGUGGAAGUCUGAGAAUUAACA	0.000105 ± 0.052
UAGUGACUCACCUAGUCUGAGAGAUUAACA	0.0896 ± 0.0089
UAGUGACAGUGGAACUCUGAGAGCUUAACA	0.000211 ± 0.029
UAGUGACACACCUUCUCUGAGAGAUUACA	0.0753 ± 0.023
